Data from paper PMC4592276.
No constants are given. Whether binding was seen depends on the method and setting. Binding seen in cells or lysates may run through a third protein. Some results given as binding are weak or reduced against the parent protein; the word gives no strength.

Protein sequences, listed by entry. Tags and fused reporters are not part of them. Lines headed by an entry give the natural chain unless they say otherwise; changes in a name come on top. Chains listed by the source or under a name are the forms on record and can include a tag or linker. Residues count along the entry.
UniProt P03146: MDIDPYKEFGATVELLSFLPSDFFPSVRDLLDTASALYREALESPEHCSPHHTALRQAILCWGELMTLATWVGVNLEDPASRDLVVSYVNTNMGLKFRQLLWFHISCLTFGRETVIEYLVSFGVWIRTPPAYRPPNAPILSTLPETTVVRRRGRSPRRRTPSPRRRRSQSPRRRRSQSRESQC
HBc 1-147 (ARD-truncated HBV core protein, N-terminal capsid assembly domain) (Hepatitis B virus (serotype ayw)): residues 1-147 of P03146
HGS dUIM (UIM-truncated HGS, deletion of aa 257-277) (O14964-1, form named): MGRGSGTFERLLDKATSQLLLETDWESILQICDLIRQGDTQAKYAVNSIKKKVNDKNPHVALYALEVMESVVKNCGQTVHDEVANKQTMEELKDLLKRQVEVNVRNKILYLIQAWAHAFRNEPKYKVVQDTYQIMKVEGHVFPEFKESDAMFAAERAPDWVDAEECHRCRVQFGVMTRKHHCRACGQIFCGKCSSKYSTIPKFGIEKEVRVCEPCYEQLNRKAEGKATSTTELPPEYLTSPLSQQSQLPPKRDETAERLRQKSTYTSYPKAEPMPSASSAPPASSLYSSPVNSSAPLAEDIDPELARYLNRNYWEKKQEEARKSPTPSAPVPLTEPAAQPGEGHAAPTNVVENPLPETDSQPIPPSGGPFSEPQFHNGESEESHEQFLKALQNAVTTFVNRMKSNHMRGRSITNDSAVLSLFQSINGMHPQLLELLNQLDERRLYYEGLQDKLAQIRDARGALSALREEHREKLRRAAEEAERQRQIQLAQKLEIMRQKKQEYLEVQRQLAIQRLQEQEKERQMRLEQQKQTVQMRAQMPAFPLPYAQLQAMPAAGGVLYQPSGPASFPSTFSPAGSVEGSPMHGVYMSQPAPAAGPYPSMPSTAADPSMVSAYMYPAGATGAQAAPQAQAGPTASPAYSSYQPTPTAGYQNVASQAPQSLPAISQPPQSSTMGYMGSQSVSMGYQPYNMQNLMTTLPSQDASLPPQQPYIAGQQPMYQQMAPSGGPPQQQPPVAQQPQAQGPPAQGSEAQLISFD

What was measured:
[1] = molecular target: HBV core protein (HBc 1-183), wild type, serotype ayw (Hepatitis B virus (serotype ayw)) (UniProt P03146); test: co-IP; lysates of cells co-transfected with the HBV replicon pCHT-9/3091 (wild type or core mutant) and an HGS expression vector (2:1; HuH-7, day 3 post-transfection for Fig 7A); precipitated with anti-HBc antibody and protein A/G Dynabeads, 4°C; IP buffer 20 mM Tris pH 8.0, 120 mM NaCl, 0.2% NP-40, 1 mM EDTA, 50 mM NaF, 1 mM Na3VO4; SDS-PAGE
[2] = molecular target: HBc 1-147 (ARD-truncated HBV core protein, N-terminal capsid assembly domain) (Hepatitis B virus (serotype ayw)) (UniProt P03146); test: as above

| Substance | binding [1] | binding [2] |
| --- | --- | --- |
| HGS (HRS, hepatocyte growth factor-regulated tyrosine kinase substrate), wild type, Myc-Flag-tagged (from UniProt O14964-1 1-777) | binds | binds |
| HGS dUIM (UIM-truncated HGS, deletion of aa 257-277) (from UniProt O14964-1 1-777) | binds | binds |
